{"source": "patent US20230263164A1", "about": "(priority 2020, published 2023)", "note": "Where a name gives a salt, the structure may show the parent alone. Some of these results come from one statement about several compounds together."}
{"smiles": "CC(C)(C)OP(=S)(S)OC(C)(C)C", "note": "[Example 8, di(tert-butanol)dithiophosphate Sodium Salt]", "values": [{"measurement": "time in which hydrolysis completed", "setting": "85° C.", "result": "≤ 90", "unit": "min"}, {"measurement": "time in which completely hydrolyzed", "setting": "room temperature", "result": "≤ 30", "unit": "days"}]}
